The values below come from paper PMC3154441.

Sequences of proteins named here, by UniProt entry; tags and fusion partners are left off. Residues count along the entry.
UniProt P68104, residues 2-462: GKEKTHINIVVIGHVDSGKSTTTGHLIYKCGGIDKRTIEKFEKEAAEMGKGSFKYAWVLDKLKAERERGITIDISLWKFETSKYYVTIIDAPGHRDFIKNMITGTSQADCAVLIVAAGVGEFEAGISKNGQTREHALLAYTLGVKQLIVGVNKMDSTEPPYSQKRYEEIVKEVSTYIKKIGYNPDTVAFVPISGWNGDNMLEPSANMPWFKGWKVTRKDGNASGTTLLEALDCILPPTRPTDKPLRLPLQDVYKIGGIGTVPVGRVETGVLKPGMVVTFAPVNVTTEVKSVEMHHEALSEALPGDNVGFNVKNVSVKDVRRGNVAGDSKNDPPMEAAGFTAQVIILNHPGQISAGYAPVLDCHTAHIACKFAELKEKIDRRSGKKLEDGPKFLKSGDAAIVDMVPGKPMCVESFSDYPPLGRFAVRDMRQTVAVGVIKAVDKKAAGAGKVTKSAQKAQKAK
UniProt P03430: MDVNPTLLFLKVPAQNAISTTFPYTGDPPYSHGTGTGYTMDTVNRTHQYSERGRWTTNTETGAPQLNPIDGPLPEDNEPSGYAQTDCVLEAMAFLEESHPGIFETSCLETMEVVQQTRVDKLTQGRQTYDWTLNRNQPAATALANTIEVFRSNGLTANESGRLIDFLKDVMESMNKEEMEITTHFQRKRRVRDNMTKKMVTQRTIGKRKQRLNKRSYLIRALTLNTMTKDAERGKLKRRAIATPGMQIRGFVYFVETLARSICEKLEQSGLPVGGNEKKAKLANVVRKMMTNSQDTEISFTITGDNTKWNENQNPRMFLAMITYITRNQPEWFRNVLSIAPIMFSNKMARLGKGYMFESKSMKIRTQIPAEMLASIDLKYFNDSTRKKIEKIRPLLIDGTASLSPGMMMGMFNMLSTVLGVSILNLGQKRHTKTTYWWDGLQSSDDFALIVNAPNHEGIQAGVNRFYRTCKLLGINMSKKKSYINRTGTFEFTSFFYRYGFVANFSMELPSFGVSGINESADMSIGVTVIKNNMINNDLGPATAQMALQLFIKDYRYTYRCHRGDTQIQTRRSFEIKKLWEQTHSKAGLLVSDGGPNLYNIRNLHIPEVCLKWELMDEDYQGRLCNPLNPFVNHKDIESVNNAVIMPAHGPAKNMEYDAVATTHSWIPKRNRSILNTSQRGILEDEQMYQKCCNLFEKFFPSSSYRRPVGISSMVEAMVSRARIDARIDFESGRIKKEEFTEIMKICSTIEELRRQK
UniProt P03427: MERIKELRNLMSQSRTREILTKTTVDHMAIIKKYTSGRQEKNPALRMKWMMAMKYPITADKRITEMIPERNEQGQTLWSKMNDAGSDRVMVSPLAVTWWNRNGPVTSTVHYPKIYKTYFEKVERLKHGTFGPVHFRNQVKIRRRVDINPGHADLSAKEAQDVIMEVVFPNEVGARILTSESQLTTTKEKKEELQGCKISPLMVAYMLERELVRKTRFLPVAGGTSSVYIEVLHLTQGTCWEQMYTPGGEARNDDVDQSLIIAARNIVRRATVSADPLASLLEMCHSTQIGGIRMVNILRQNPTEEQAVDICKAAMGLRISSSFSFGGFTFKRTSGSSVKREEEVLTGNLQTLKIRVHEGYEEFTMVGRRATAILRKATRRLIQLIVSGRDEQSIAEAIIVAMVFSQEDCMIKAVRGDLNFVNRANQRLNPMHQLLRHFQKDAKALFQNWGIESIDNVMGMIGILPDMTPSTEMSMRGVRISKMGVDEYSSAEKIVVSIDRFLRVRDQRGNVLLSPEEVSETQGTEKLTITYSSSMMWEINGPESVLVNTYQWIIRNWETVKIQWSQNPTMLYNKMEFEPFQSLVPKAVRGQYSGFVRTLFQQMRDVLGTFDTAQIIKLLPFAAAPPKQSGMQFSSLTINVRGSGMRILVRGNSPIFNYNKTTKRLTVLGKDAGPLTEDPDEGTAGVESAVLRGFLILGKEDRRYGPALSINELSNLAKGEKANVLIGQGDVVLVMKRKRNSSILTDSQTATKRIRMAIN

Results are given in words; binding and its absence hold for the method and conditions named. Binding seen in cells or lysates may run through a third protein. Some binding calls cover weakened binding; strength is not graded here. For some of these results: Tags and fused reporters may be left off the sequences shown.

The target in test [1] is GST-EF1α fusion protein (human) (UniProt P68104). Briefly: pull-down.
For test [2], the target named is T1, GST-p23 fusion protein (human) (UniProt Q15185).
T1 sequence: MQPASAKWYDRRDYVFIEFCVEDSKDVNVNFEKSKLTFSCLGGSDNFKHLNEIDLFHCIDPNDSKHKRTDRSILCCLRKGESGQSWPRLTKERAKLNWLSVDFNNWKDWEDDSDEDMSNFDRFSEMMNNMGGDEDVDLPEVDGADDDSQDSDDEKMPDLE
Briefly: pull-down.

Turning to “WSN-PB1 protein, transiently expressed (from UniProt P03430 1-757)”, the binding result in test [1] is “no binding”; in test [2], “binds”.
The matching figures for “WSN-PB2 protein, transiently expressed (from UniProt P03427 1-759)”: “no binding” and “binds”.
